Data on 25 compounds can be found in PubChem BioAssay AID330 (DTP/NCI, 2004).

The subject of this assay is P388 leukemia ip, CD2F1 mice, survival T/C. The assay can be described thus: NCI In Vivo Anticancer Drug Screen. Data for tumor model P388 Leukemia (intraperitoneal) in CD2F1 (CDF1) mice. As to conditions: T/C endpoint: median survival time, higher T/C = longer survival.
Setting [1] is: dose: 200.0 mg/kg/injection, schedule: Q01DX009 (ip), vehicle: saline with Tween-80.
[2] abbreviates: dose: 12.5 mg/kg/injection, schedule: Q01DX009 (ip), vehicle: saline.
[3] abbreviates: dose: 200.0 mg/kg/injection, schedule: Q04DX003 (ip), vehicle: saline with Tween-80.
The mark [4] stands for this setting: dose: 400.0 mg/kg/injection, schedule: Q04DX003 (ip), vehicle: saline with Tween-80.
[5] abbreviates: dose: 240.0 mg/kg/injection, schedule: Q01DX005 (ip), vehicle: saline with Tween-80.
Setting [6] is: dose: 50.0 mg/kg/injection, schedule: Q01DX005 (ip), vehicle: saline with Tween-80.
Where [7] appears, read: dose: 100.0 mg/kg/injection, schedule: Q01DX005 (ip), vehicle: saline with Tween-80.
Where [8] appears, read: dose: 50.0 mg/kg/injection, schedule: Q01DX009 (ip), vehicle: distilled water + Tween-80.

The list does not hold the whole screen: it gathers tests that were run many times, whatever their T/C, doses with no T/C, and many T/C values between a quarter and a half above the control. Other doses and runs of a compound stand elsewhere. T/C: endpoint of the treated group in % of that of the vehicle group. Some entries give survivors of the animals treated and no T/C: the source holds a T/C of zero for them, seemingly a mark for toxic or unscored doses. Some survivor counts are full or nearly so, which does not show that the dose was tolerated: survival well below the control is almost never listed, so the zero probably covers shortened survival too. Survivors were counted at the toxicity check, usually on the fifth day, unless a day is given; later deaths do not show. Schedules are NCI's codes, taken here to give the interval after Q, in days (D) or hours (H), and the number of doses after X. Some doses were run more than once; their values stand side by side, smallest first. Where survival is the endpoint, the PubChem record calls one and a half times the control and up active, and a quarter to a half above the control has no call in these data; cut-offs in other NCI protocols can differ. Some T/C values carry the count of animals alive at the toxicity check (mostly the fifth day); where none is given, no animal had died by that day. Signs of the kind (2×) count equal records among those shown.

For `Cc1ccc2c(ccc3c[n+]4ccccc4c(C)c32)c1`, the survivor count is recorded as 5 of 6 (dose: 33.0 mg/kg/injection, schedule: Q04DX003 (ip), vehicle: saline with Tween-80); 0 of 6 (dose: 50.0 mg/kg/injection, schedule: Q04DX003 (ip), vehicle: other); 5 of 6 (dose: 50.0 mg/kg/injection, schedule: Q04DX003 (ip), vehicle: saline with Tween-80); 5 of 6 (dose: 75.0 mg/kg/injection, schedule: Q04DX003 (ip), vehicle: saline with Tween-80); 0 of 6 (dose: 100.0 mg/kg/injection, schedule: Q04DX003 (ip), vehicle: other).
As for `CCN(CC)C(Cc1ccccc1)=NC(C)(C)C`, under setting [1], the survivor count is 0 of 6.
On to `COC(C(=O)C(O)C(C)O)C1Cc2cc3cc(OC4CC(OC(C)=O)C(OC5CC(O)C(OC)C(C)O5)C(C)O4)cc(O)c3c(O)c2C(=O)C1OC1CC(OC2CC(OC3CC(C)(O)C(OC(=O)C(C)C)C(C)O3)C(O)C(C)O2)C(O)C(C)O1` (stereo not drawn), for which the T/C reads like this: (dose: 0.02 mg/kg/injection, schedule: Q01DX010 (ip), vehicle: saline) 125 % of control; (dose: 0.05 mg/kg/injection, schedule: Q01DX010 (ip), vehicle: saline) 125 and 130 % of control; (dose: 0.1 mg/kg/injection, schedule: Q01DX010 (ip), vehicle: saline) 120, 130, 130 [5 of 6 alive], 135, 145 % of control; (dose: 0.2 mg/kg/injection, schedule: Q01DX010 (ip), vehicle: saline) 130, 145 (3×), 150 % of control [5 of 6 alive]; (dose: 0.4 mg/kg/injection, schedule: Q01DX010 (ip), vehicle: saline) 135, 150, 165 (2×), 170 % of control; (dose: 0.8 mg/kg/injection, schedule: Q01DX010 (ip), vehicle: saline) 140 [5 of 6 alive], 150, 160, 180 % of control. Besides, the T/C (dose: 1.6 mg/kg/injection, schedule: Q01DX010 (ip), vehicle: saline) is 100, 190, 190 % of control [5 of 6 alive] (2×). Besides, the survivor count (dose: 3.2 mg/kg/injection, schedule: Q01DX010 (ip), vehicle: saline) is reported as 1 of 6.
As for `CCCCCCCCCC[N+]1(CC)CCCC1`, the survivor count by setting is: under setting [2], 2 of 6; (dose: 50.0 mg/kg/injection, schedule: Q01DX009 (ip), vehicle: saline) 0 of 6; (dose: 100.0 mg/kg/injection, schedule: Q01DX009 (ip), vehicle: saline) 1 of 6; (dose: 200.0 mg/kg/injection, schedule: Q01DX009 (ip), vehicle: saline) 0 of 6.
In the case of `Clc1cccc2c(SCCCCCCSc3c4ccccc4nc4c(Cl)cccc34)c3ccccc3nc12`, the survivor count (dose: 240.0 mg/kg/injection, schedule: Q01DX005 (ip), vehicle: Klucel (hydroxypropylcellulose) (HPC)) is on record as 6 of 6.
As for `O=CNc1nc[nH]c1-c1noc(=O)[nH]1`, the survivor count reads like this: (dose: 200.0 mg/kg/injection, schedule: Q04DX002 (ip), vehicle: saline) 5 of 6; (dose: 400.0 mg/kg/injection, schedule: Q04DX002 (ip), vehicle: saline) 0 of 6.
Turning to `Cn1c(=O)c2[nH]c(Cc3ccsc3)nc2n(C)c1=O`, the survivor count is reported as 6 of 6 (dose: 200.0 mg/kg/injection, schedule: Q01DX009 (ip), vehicle: Klucel (hydroxypropylcellulose) (HPC)) and 0 of 6 (dose: 400.0 mg/kg/injection, schedule: Q01DX009 (ip), vehicle: Klucel (hydroxypropylcellulose) (HPC)).
Turning to `CC(=O)Nc1cc2c(cc1Br)-c1ccccc1C2O` (stereo not drawn), the survivor count is 6 of 6 (dose: 5.0 mg/kg/injection, schedule: Q01DX009 (ip), vehicle: saline with Tween-80); 6 of 6 (dose: 10.0 mg/kg/injection, schedule: Q01DX009 (ip), vehicle: saline with Tween-80); 0 of 6 (dose: 100.0 mg/kg/injection, schedule: Q04DX003 (ip), vehicle: saline with Tween-80); 0 of 6 under setting [3]; 0 of 6 under setting [4].
Take `COCC/C=C\CN(C(C)C)C(C)C`: the survivor count under setting [1] was 0 of 6.
Regarding `N=C1SCc2ccc3ccccc3c21`, the T/C under setting [1] is 135 % of control.
On to `O=C(c1ccccc1)c1ccc2n[se]nc2c1`, for which the survivor count is recorded as 3 of 6 (dose: 60.0 mg/kg/injection, schedule: Q01DX005 (ip), vehicle: saline with Tween-80); 0 of 6 (dose: 120.0 mg/kg/injection, schedule: Q01DX005 (ip), vehicle: saline with Tween-80); 0 of 6 under setting [5].
`COc1ccc(C2(C3NCCC4=C3CCCC4)CC2)cc1` (stereo not drawn): the survivor count (dose: 200.0 mg/kg/injection, schedule: Q01DX005 (ip), vehicle: Klucel (hydroxypropylcellulose) (HPC)) was 2 of 6.
Regarding `CC(=O)OC1C(C)OC(OC(=O)C2CCC3C(C2)OC2(CC(OC(=O)/C=C/c4ccccc4)C(C)CO2)C32CO2)C(OC2OC(C)C(O)C(OC(C)=O)C2O)C1O` (stereo not drawn), the T/C by setting is: (dose: 3.34 mg/kg/injection, schedule: Q01DX009 (ip), vehicle: saline + alcohol) 130 % of control; (dose: 12.5 mg/kg/injection, schedule: Q01DX005 (ip), vehicle: saline with Tween-80) 138 % of control; (dose: 25.0 mg/kg/injection, schedule: Q01DX005 (ip), vehicle: saline with Tween-80) 140 % of control; under setting [6], 148 % of control.
As to `CC(C)(C)N1COCO[C@H]2CCC[C@@H]21`, the T/C (dose: 100.0 mg/kg/injection, schedule: Q04DX002 (ip), vehicle: Klucel (hydroxypropylcellulose) (HPC)) was 125 % of control. Moreover, the survivor count (dose: 400.0 mg/kg/injection, schedule: Q04DX002 (ip), vehicle: Klucel (hydroxypropylcellulose) (HPC)) is given as 0 of 6.
Take `CCN(CC)c1ccc2cc(S(=O)(=O)c3ccccc3)c(=O)oc2c1`: the survivor count under setting [5] was 4 of 6.
With `Cn1c2ccccc2c2nnc(N/N=C/c3cccs3)nc21`, the survivor count is given as 6 of 6 (dose: 100.0 mg/kg/injection, schedule: Q04DX002 (ip), vehicle: saline with Tween-80) and 6 of 6 (dose: 200.0 mg/kg/injection, schedule: Q04DX002 (ip), vehicle: saline with Tween-80).
Consider `CN1c2ccccc2S(=O)(=O)n2c(COc3ccccc3)nnc21`, for which, under setting [7], the survivor count was 6 of 6.
On to `CN=C(N)NCCCCCCCCNC(N)=NC`, for which the T/C under setting [2] was 135 % of control. Where the note is “dose: 25.0 mg/kg/injection, schedule: Q01DX009 (ip), vehicle: saline with Tween-80”, the survivor count is reported as 6 of 6.
`CCn1c(C)c(COC(=O)NC)c(COC(=O)NC)c1-c1ccc(Cl)c(Cl)c1`: under setting [8], the T/C is 149 % of control [4 of 6 alive] and the survivor count was 5 of 6. Moreover, where the note is “dose: 100.0 mg/kg/injection, schedule: Q01DX009 (ip), vehicle: distilled water + Tween-80”, the survivor count was 0 of 6 and 3 of 6.
In the case of `O=C(/C=C/c1ccc(Cl)c(Cl)c1)c1cccc(O)c(=O)c1`, the survivor count (dose: 12.5 mg/kg/injection, schedule: Q01DX009 (ip), vehicle: Klucel (hydroxypropylcellulose) (HPC)) is given as 6 of 6.
On to `Cc1noc(NS(=O)(=O)c2ccc(N=c3c4ccccc4n(C)c4ccccc34)cc2)c1C`, for which the T/C was 131 % of control under setting [6]; 130 % of control under setting [7]; 131 % of control (dose: 200.0 mg/kg/injection, schedule: Q01DX005 (ip), vehicle: saline with Tween-80).
For `CCC1(O)CC2CN(CCc3c([nH]c4ccccc34)C(C(=O)OC)(c3cc4c(cc3OC)N(C)C3C(O)(C(=O)OC)CC5(CC)C=CCN6CCC43C65)C2)C1` (stereo not drawn), the T/C runs as follows: (dose: 2.0 mg/kg/injection, schedule: Q01DX001 (ip), vehicle: saline) 128 and 135 % of control; (dose: 4.0 mg/kg/injection, schedule: Q01DX001 (ip), vehicle: saline) 145 % of control.
As for `CN=C(NC)c1ccc(NC(=O)/C=C\c2ccc(C(=O)Nc3ccc(C(=NC)NC)cc3)cc2)cc1`, the T/C (dose: 6.6 mg/kg/injection, schedule: Q04DX003 (ip), vehicle: saline with Tween-80) is 145 % of control.
As for `[N-]=[N+]=NC1(c2ccccc2)C(=O)c2ccccc2C1=O`, the survivor count under setting [4] is reported as 3 of 6.
With `Cc1cc(O)c(N=Nc2ccc(C(=O)O)cc2)cc1C`, the survivor count under setting [3] is listed as 6 of 6.
